{
  "source": "patent US9809625B2",
  "about": "(BRISTOL-MYERS SQUIBB COMPANY, priority 2015, dated 2017)",
  "key": {"[1]": {"test": "solid-phase peptide synthesis", "details": "late stage modification step, LCMS analysis"}, "[2]": {"test": "general procedure: Fmoc solid-phase peptide synthesis; Rink resin; HATU/DIPEA", "details": "whole synthesis; for final LC-MS purity: LCMS analysis"}, "[3]": {"test": "general procedure: Fmoc solid-phase peptide synthesis; 2-chlorotrityl resin; HATU/DIPEA", "details": "whole synthesis, scale 0.8 mmol"}, "[4]": {"details": "scale 0.20 mmol scale (2×0.1 mmol)"}},
  "note": "For some of these results: HELM strings list residues between dots; [ac] is acetyl, [am] amide, other brackets name non-standard units.",
  "data": [
    {"substance": "PEPTIDE1{[CH2CO].Y.[NMeAla].N.P.[Dap].L.[Hyp].W.G.W.[NMeNle].[NMeNle].L.C.G.[NHEtOPh]}$PEPTIDE1,PEPTIDE1,1:R3-15:R3$$$V2.0", "values": [
      {"measurement": "final LC-MS purity", "setting": "[1]", "value": 92, "unit": "%"}
    ]},
    {"substance": "ClAc-Tyr-mAla-Asn-Pro-Dap-Leu-Hyp-Trp-Gly-Trp-mNle-mNle-Leu-Cys-Sar", "values": [
      {"measurement": "final LC-MS purity", "setting": "[2]; scale 0.2 mmol", "value": 95, "unit": "%"},
      {"measurement": "isolated mass", "setting": "[2]; scale 0.2 mmol", "value": 36.4, "unit": "mg"}
    ]},
    {"substance": "ClAc-Tyr-[N-Me]Ala-Asn-Pro-Ser-Gln-Hyp-Trp-Ser-Trp-[N-Me]Nle-[N-Me]Nle-Leu-Cys-Gly", "values": [
      {"measurement": "final LC-MS purity", "setting": "[3]; LCMS analysis", "value": 97, "unit": "%"},
      {"measurement": "isolated mass", "setting": "[3]", "value": 29.3, "unit": "mg"}
    ]},
    {"substance": "PEPTIDE1{[CH2CO].Y.[NMeAla].N.P.[Dap].L.[Hyp].W.G.W.[NMeNle].[NMeNle].L.C.G.[NHPrN(EtOH)2]}$PEPTIDE1,PEPTIDE1,1:R3-15:R3$$$V2.0", "values": [
      {"measurement": "final LC-MS purity", "setting": "[1]", "value": 100, "unit": "%"}
    ]},
    {"substance": "PEPTIDE1{[CH2CO].Y.[NMeAla].N.P.[Dap].L.[Hyp].W.G.W.[NMeNle].[NMeNle].L.C.G.[NHcBu]}$PEPTIDE1,PEPTIDE1,1:R3-15:R3$$$V2.0", "values": [
      {"measurement": "final LC-MS purity", "setting": "[1]", "value": 95, "unit": "%"}
    ]},
    {"substance": "PEPTIDE1{[CH2CO].Y.[NMeAla].N.P.[Dap].L.[Hyp].W.G.W.[NMeNle].[NMeNle].L.C.G.[NH-Pr-morpholine]}$PEPTIDE1,PEPTIDE1,1:R3-15:R3$$$V2.0", "values": [
      {"measurement": "final LC-MS purity", "setting": "[1]", "value": 94, "unit": "%"}
    ]},
    {"substance": "ClAc-Tyr-mAla-Asn-Pro-Dap-Leu-Hyp-Trp-Gly-Trp-mNle-mNle-Leu-Cys-Sarc", "values": [
      {"measurement": "final LC-MS purity", "setting": "[2]; [4]", "value": 95, "unit": "%"},
      {"measurement": "isolated mass", "setting": "[2]; [4]", "value": 36.4, "unit": "mg"}
    ]}
  ]
}
